Data as given in PubChem BioAssay AID1259405 (NCATS, 2018)
Shown is one part, drawn at random, of about 50,000 reagents tested. In the full data, about 4,000 (8%) are marked active. 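Mouse siRNA library applied to hamster cells; one well for each siRNA.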 The numbers tell different reagents against one gene apart. No sequences are given here.

- Screen: 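Silenced genes that increase secreted GFP made by CHO cells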 (primary screen)
- System: Chinese hamster CHO-K1 ovary cells with stable secreted eGFP expression
- Reagent: single siRNA against mouse genes, 0.8 pmol siRNA per well (2 µl of 400 nM stock)
- Time to read-out: 3 days
- Detection: 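Per-well intracellular GFP measured by laser scanning cytometry, plus viability from ATP luminescence, each relative to plate median of non-targeting control wells, in %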
- Direction: GFP, % of control: higher = more GFP per well, higher productivity; viability (ATP), % of control: higher = more viable cells (more ATP)
- Rule for the call: 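a knock-down is called active if GFP reaches 120% or more of non-targeting control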

no.	gene symbol	reagent	GFP, % of control	viability (ATP), % of control	Outcome
1	Ptp4a3	1	82.6	71.9	inactive
2	Ptp4a3	2	83.7	87.7	inactive
3	Ptp4a3	3	33.2	67.5	inactive
4	Slc2a2	1	67.5	81.6	inactive
5	Slc2a2	2	49.5	74.9	inactive
6	Slc2a2	3	102	83	inactive
7	AU018091	1	82	122	inactive
8	AU018091	2	66.2	63.7	inactive
9	AU018091	3	64.3	71.6	inactive
10	Bpifb1	1	55.5	89.7	inactive
11	Bpifb1	2	38.8	42.5	inactive
12	Bpifb1	3	74.1	117	inactive
13	Gapdhs	1	79.7	120	inactive
14	Gapdhs	2	86.8	72.7	inactive
15	Slc34a2	1	84.5	113	inactive
16	Slc34a2	2	74	77.7	inactive
17	Slc34a2	3	84.6	60.5	inactive
18	Spaca7b	1	86.3	80	inactive
19	Spaca7b	2	54.5	54.3	inactive
20	Spaca7b	3	42.3	39.4	inactive
21	Ptch1	1	76.8	73.7	inactive
22	Ptch1	2	63.2	79	inactive
23	Ptch1	3	74.9	87.6	inactive
24	BC048671	1	41.9	29.8	inactive
25	BC048671	2	89.8	84	inactive
26	BC048671	3	118	85.3	inactive
27	Gpr6	1	112	116	inactive
28	Gpr6	2	77.5	72.2	inactive
29	Gpr6	3	70.8	68.3	inactive
30	Hp	1	70.1	88	inactive
31	Hp	2	51.1	35.3	inactive
32	Hp	3	52.8	71.5	inactive
33	Eci2	1	70.4	64.5	inactive
34	Eci2	2	115	64.2	inactive
35	Eci2	3	96.7	73.9	inactive
36	Hapln3	1	55.7	41	inactive
37	Hapln3	2	97.7	72.9	inactive
38	Hapln3	3	63.7	48.9	inactive
39	Kir3dl2	1	159	72.8	active
40	Kir3dl2	2	101	73.7	inactive
41	Kir3dl2	3	122	87.1	active
42	Abca13	1	48.3	53.9	inactive
43	Abca13	2	82.6	68	inactive
44	Abca13	3	82.3	94.3	inactive
45	Or4m1	1	132	107	active
46	Or4m1	2	167	91.9	active
47	Or4m1	3	82.8	91.7	inactive
48	Ttyh1	1	38.1	63.1	inactive
49	Ttyh1	2	115	96.1	inactive
50	Ttyh1	3	143	131	active
51	Obp1a	1	81.4	50.1	inactive
52	Obp1a	2	93.2	92.8	inactive
53	Obp1a	3	48.9	53.5	inactive
54	Asb15	1	82.5	53.1	inactive
55	Asb15	2	64.3	68.1	inactive
56	Asb15	3	74.8	91	inactive
57	Lypla1	1	81.8	63.9	inactive
58	Lypla1	2	66.9	70.1	inactive
59	Lypla1	3	67.4	86.1	inactive
60	Dcaf11	1	45.6	42.5	inactive
61	Dcaf11	2	80.1	60.4	inactive
62	Dcaf11	3	50.8	82.5	inactive

Ordered by “viability (ATP), % of control” (highest first): some entries from above
gene symbol	reagent	GFP, % of control	viability (ATP), % of control	Outcome
Spaca7b	1	86.3	80	inactive
Ptch1	2	63.2	79	inactive
Ptch1	1	76.8	73.7	inactive
Spaca7b	2	54.5	54.3	inactive
Spaca7b	3	42.3	39.4	inactive

More reagents follow:
no.	gene symbol	reagent	GFP, % of control	viability (ATP), % of control	Outcome
63	Paip2b	1	54.9	79.6	inactive
64	Paip2b	2	44.4	83.9	inactive
65	Paip2b	3	63.6	102	inactive
66	Srsf7	1	95.4	54.6	inactive
67	Srsf7	2	79.7	81.6	inactive
68	Srsf7	3	66	64.9	inactive
69	Tsga10	1	66.7	46.7	inactive
70	Tsga10	2	45.4	57.6	inactive
71	Tsga10	3	73.1	92.8	inactive
72	Rab18	1	136	95.8	active
73	Rab18	2	110	90.6	inactive
74	Rab18	3	106	123	inactive
75	Vstm5	1	47.6	45.2	inactive
76	Vstm5	2	134	99.7	active
77	Vstm5	3	69.9	101	inactive
78	Fundc2b	1	49.2	91.4	inactive
79	Fundc2b	2	48.4	42	inactive
80	Fundc2b	3	69.8	84	inactive
81	Prelid3a	1	61.7	61	inactive
82	Prelid3a	2	44.1	83.5	inactive
83	Prelid3a	3	104	82.9	inactive
84	Or1e19	1	117	83.3	inactive
85	Or1e19	2	93.1	83.5	inactive
86	Or1e19	3	104	103	inactive
87	Dlg4	1	87.4	101	inactive
88	Dlg4	2	114	80.7	inactive
89	Paip1	1	95.6	104	inactive
90	Paip1	2	82.6	87.4	inactive
91	Paip1	3	70.4	77.3	inactive
92	Clmp	1	74.3	83.9	inactive
93	Clmp	2	51	68.3	inactive
94	Clmp	3	52.2	84	inactive
95	Cog4	1	99.3	94	inactive
96	Cog4	2	81.6	59.9	inactive
97	Cog4	3	71.1	56.4	inactive
98	Or6s1	1	86.1	64.6	inactive
99	Or6s1	2	106	111	inactive
100	Or6s1	3	56.9	68.8	inactive
101	Plcxd3	1	170	132	active
102	Plcxd3	2	94.4	66.3	inactive
103	Plcxd3	3	86.6	79.5	inactive
104	Plcxd3	4	185	75.2	active
105	Plcxd3	5	110	78.1	inactive
106	Plcxd3	6	74.5	81	inactive
107	Aqp2	1	84.5	54.5	inactive
108	Aqp2	2	53.2	55.1	inactive
109	Aqp2	3	93.1	60.5	inactive
